Measured values as given in patent US20070141665A1.
No constants are given. Whether binding was seen depends on the method and setting. Some binding calls cover weakened binding; strength is not graded here.

By UniProt entry, the sequences of proteins in these tests, tags left out. Where a name states a change or a piece, a line headed by the entry shows the natural chain unless it says otherwise. Residues count along the entry.
UniProt P15381, residues 444-493: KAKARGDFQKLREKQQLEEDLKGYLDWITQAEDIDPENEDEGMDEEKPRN
UniProt P27884: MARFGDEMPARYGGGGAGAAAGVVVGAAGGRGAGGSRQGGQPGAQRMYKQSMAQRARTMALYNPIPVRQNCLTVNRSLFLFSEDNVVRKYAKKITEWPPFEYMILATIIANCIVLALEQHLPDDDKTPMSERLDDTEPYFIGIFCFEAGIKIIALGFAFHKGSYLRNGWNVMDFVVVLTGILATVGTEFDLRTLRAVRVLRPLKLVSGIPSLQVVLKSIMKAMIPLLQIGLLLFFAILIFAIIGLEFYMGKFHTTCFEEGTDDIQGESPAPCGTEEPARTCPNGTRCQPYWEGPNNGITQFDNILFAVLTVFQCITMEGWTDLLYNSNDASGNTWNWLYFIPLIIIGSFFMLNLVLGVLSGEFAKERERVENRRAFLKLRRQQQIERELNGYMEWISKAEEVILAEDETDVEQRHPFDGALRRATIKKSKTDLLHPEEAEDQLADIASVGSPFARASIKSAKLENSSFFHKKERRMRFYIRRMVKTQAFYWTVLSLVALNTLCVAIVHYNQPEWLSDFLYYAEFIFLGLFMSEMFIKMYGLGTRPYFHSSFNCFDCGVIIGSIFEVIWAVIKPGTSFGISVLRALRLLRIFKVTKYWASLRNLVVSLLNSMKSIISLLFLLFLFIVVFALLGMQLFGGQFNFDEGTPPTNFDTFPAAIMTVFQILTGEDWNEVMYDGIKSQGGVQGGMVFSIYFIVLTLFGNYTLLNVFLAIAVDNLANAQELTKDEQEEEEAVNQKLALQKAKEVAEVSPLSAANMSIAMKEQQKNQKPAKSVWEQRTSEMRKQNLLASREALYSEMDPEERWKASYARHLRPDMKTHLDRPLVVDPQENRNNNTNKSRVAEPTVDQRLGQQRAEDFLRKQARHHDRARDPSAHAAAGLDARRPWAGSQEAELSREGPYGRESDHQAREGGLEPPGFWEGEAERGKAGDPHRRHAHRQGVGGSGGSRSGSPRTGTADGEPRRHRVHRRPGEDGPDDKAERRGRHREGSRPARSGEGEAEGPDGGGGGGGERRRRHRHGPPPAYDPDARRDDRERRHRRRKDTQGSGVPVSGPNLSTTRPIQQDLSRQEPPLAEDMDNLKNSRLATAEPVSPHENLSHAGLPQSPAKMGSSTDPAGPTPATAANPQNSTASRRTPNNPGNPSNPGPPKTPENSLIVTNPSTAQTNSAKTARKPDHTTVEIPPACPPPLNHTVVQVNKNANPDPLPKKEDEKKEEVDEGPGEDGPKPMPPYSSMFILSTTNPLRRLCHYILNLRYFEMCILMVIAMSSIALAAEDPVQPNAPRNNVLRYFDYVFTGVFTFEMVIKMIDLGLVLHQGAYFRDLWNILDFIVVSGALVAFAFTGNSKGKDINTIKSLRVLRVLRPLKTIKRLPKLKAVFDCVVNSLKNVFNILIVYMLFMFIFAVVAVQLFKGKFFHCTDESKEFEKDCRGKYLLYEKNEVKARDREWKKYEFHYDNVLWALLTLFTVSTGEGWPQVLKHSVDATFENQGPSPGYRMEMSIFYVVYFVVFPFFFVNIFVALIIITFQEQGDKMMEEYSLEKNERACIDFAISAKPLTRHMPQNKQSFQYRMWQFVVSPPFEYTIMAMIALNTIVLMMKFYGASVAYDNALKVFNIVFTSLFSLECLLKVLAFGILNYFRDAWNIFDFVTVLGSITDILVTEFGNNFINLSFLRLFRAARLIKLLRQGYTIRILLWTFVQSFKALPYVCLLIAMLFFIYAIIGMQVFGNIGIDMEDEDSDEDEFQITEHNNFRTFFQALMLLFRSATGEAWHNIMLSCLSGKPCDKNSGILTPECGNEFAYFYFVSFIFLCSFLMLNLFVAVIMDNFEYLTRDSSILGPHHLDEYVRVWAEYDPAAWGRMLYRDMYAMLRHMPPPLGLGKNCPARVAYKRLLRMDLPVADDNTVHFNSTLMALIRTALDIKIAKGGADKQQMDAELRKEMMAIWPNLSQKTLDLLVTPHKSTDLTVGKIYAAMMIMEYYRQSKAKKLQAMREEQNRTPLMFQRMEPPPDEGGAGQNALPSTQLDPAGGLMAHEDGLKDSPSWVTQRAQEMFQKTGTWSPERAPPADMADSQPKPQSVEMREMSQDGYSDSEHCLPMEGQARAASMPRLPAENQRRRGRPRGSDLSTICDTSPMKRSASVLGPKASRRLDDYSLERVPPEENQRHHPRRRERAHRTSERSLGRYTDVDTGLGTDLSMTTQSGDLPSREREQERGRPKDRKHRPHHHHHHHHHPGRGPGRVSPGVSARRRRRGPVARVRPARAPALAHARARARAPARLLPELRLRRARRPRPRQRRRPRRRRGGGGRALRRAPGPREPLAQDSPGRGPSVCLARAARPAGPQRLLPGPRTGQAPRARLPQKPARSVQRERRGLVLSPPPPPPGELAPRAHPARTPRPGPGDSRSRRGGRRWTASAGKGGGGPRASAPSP

Legend:
[1] = target: GST-AID1.2 fusion protein (UniProt P15381); assay: [35S] Cavβ3 incubated with GST-AID1.2, SDS-PAGE and autoradiography
[2] = target: GST-AID1.2 fusion protein (UniProt P15381); assay: [35S] Cavβ3 incubated with GST-AID1.2, SDS-PAGE and autoradiography (legend of FIG. 2a)
[3] = target: GFP-Cavα2.1 (fluorescent chimera of the α1A subunit) expressed in xenopus oocytes (UniProt P27884); assay: FRET by confocal microscopy in xenopus oocytes

binding [1] | binding [2] | binding [3] | Substance
binds | binds |  | Cavβ3 subunit (rat), translated in vitro in the presence of [35S]-methionine (from UniProt P54287 1-484)
 |  | binds | purified His-Cavβ3 recombinant protein coupled to Cy3 maleimide (from UniProt P54287 1-484)
